According to the supplement of paper PMC10849652:
Some of the results follow.

Amino acid sequences for entries named in this document (tags omitted). A change or cut given only in a name is not applied to a line headed by its entry.
UniProt O95573: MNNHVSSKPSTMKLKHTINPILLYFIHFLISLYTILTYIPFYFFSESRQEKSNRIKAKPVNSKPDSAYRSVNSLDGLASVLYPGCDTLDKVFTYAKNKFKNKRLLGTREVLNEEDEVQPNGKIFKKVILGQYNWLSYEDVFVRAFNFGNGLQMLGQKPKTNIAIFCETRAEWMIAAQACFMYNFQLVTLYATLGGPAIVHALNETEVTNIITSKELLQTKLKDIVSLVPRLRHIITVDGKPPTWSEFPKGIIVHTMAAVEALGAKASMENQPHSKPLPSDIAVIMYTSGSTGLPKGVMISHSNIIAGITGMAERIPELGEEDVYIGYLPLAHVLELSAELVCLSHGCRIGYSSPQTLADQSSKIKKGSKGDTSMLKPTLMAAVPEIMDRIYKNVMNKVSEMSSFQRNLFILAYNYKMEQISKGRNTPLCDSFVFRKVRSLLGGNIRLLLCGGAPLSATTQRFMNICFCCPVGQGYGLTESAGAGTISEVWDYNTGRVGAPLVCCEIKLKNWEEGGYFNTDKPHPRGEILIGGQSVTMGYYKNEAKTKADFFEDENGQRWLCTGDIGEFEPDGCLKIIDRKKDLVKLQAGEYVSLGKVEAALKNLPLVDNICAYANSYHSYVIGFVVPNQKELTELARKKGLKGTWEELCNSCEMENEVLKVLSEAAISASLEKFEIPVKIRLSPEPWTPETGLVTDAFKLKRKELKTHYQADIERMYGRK
UniProt O95831, whole entry, looked up: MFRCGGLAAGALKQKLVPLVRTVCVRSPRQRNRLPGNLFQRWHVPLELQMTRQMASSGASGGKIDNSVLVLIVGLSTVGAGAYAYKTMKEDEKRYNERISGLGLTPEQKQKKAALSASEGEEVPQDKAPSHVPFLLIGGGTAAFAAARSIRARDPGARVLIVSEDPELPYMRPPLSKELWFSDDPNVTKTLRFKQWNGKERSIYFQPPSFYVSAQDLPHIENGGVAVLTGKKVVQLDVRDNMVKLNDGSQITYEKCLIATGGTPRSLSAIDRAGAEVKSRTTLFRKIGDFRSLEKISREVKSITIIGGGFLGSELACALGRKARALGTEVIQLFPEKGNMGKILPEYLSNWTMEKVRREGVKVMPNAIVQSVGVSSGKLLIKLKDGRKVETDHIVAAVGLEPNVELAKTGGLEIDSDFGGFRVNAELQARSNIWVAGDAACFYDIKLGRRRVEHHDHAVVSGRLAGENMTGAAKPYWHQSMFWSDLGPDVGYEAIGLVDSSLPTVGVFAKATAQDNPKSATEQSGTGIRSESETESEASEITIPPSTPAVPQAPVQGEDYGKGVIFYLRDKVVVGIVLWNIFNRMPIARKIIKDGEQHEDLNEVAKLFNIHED
UniProt O95433, whole entry, looked up: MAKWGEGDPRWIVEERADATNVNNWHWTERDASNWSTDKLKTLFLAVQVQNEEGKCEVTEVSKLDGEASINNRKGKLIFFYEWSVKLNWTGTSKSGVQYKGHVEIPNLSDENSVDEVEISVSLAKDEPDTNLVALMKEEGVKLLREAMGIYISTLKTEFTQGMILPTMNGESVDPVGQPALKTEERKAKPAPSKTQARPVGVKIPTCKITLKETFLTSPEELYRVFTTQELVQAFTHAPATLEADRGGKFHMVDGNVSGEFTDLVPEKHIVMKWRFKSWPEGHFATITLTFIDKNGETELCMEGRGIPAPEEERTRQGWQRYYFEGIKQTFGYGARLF
UniProt Q9UHX3: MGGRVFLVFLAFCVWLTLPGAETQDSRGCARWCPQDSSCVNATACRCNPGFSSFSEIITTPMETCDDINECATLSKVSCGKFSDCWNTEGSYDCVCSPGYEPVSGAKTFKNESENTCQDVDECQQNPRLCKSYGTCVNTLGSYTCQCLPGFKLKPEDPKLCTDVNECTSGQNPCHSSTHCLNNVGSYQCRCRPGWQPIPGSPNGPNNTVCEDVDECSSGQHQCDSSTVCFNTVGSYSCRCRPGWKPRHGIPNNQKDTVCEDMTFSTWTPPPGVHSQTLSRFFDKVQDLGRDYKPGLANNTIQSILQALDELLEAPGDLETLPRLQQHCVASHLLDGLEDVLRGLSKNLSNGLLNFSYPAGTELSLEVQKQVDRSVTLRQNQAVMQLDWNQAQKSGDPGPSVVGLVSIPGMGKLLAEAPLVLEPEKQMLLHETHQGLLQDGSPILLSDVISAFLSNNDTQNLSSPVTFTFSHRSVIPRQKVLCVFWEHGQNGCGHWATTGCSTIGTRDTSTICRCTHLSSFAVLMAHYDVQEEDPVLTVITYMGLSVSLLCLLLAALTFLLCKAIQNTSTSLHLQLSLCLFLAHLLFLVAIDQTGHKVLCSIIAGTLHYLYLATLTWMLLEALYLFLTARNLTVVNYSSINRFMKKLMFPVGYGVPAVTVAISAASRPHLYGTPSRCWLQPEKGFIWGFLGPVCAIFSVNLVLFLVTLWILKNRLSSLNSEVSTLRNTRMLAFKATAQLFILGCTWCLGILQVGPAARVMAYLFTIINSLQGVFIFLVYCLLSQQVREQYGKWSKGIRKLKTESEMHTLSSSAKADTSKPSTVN
UniProt Q9UPQ3: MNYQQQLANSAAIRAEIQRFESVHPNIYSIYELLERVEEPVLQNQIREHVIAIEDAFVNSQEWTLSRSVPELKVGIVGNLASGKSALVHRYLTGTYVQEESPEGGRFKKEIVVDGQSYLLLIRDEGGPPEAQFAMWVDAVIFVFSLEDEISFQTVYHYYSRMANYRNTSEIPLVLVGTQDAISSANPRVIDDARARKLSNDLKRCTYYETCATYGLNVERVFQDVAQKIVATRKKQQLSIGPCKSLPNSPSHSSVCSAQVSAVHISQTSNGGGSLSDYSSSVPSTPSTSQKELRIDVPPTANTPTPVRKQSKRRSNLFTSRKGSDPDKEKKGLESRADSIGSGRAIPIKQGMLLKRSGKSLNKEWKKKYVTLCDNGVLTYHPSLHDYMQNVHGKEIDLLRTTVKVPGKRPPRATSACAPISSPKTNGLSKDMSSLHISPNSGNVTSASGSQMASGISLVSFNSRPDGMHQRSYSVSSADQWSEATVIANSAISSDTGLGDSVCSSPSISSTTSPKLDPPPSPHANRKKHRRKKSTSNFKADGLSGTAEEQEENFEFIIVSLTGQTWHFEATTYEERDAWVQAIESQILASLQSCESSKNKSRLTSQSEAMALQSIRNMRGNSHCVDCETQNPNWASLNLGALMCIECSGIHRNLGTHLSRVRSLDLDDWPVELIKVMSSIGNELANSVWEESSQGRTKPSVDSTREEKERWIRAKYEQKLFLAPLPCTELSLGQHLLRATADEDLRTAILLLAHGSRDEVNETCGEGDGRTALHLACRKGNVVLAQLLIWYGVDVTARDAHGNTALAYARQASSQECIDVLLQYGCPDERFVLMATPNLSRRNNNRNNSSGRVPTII
UniProt P55263: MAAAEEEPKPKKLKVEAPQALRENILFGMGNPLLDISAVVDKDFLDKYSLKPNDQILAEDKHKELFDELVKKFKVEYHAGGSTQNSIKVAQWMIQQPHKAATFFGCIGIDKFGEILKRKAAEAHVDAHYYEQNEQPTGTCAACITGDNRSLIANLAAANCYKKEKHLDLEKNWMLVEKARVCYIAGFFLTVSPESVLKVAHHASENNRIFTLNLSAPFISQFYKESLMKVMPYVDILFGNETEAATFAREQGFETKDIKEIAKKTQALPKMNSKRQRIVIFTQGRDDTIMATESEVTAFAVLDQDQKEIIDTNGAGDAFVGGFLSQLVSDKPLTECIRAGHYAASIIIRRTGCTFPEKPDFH
UniProt Q3LIE5: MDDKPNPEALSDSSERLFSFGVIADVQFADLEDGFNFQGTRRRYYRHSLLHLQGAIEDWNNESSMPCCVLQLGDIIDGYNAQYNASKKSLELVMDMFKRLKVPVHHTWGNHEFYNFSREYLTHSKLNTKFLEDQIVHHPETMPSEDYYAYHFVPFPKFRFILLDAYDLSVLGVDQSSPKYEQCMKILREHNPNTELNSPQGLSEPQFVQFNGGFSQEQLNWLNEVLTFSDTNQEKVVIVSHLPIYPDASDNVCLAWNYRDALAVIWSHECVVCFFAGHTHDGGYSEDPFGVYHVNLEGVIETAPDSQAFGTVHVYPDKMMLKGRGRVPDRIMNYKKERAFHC
UniProt Q86V24: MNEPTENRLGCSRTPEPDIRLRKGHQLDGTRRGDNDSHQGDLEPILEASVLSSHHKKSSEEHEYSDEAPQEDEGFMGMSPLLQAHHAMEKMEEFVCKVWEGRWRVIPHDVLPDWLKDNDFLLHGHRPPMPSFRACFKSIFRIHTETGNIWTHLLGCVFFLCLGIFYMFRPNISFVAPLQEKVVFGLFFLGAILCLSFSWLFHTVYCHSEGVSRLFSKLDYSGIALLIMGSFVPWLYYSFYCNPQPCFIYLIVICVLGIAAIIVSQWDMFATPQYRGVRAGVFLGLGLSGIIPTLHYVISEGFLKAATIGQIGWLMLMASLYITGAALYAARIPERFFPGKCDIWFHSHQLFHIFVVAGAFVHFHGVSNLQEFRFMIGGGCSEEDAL
UniProt P55008: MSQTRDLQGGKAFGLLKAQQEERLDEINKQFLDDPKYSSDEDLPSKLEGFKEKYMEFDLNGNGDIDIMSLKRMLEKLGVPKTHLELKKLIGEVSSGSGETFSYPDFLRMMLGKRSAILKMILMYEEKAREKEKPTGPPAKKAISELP
UniProt Q96A54: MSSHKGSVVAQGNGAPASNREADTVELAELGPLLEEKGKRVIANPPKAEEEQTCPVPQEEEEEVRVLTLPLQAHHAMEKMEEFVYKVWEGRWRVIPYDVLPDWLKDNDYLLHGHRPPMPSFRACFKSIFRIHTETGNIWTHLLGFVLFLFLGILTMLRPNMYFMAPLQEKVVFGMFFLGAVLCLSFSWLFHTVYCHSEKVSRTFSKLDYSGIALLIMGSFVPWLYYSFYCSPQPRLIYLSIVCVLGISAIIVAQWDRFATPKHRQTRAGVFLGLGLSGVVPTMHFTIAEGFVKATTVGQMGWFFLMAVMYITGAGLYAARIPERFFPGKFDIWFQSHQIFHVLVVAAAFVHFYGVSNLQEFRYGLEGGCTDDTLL
UniProt P43652: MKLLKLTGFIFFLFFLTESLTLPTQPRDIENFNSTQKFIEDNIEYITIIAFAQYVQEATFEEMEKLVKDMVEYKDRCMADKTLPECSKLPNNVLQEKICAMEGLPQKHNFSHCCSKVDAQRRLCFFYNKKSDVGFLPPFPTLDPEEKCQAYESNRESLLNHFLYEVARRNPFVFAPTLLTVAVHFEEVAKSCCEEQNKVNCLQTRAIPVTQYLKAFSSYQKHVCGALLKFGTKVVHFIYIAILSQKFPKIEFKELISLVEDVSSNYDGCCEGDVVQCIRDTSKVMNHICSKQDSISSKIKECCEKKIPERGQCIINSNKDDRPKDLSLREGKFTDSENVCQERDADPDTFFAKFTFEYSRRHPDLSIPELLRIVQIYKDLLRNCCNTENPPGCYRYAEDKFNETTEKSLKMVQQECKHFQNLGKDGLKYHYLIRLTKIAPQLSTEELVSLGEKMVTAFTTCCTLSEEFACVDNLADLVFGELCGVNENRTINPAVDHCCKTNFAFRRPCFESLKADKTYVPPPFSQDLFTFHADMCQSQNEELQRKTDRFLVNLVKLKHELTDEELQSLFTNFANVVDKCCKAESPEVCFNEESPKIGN
UniProt Q9H9F9, whole entry, looked up: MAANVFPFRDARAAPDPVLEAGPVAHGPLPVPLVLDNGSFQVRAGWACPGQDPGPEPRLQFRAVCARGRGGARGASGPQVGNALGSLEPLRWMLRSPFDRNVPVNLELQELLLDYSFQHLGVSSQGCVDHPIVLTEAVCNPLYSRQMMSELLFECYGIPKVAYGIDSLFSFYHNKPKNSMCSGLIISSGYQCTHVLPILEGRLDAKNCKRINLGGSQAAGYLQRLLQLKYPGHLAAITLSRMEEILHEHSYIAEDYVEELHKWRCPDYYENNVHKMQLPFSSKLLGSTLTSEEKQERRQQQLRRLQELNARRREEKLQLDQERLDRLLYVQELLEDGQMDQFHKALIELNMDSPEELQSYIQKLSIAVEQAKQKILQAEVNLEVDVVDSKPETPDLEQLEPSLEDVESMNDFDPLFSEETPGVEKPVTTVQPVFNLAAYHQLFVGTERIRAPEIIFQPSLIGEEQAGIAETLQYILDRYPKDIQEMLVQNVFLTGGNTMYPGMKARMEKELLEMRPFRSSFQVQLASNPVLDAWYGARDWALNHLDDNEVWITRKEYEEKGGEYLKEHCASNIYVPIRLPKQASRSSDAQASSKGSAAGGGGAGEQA
UniProt P20933: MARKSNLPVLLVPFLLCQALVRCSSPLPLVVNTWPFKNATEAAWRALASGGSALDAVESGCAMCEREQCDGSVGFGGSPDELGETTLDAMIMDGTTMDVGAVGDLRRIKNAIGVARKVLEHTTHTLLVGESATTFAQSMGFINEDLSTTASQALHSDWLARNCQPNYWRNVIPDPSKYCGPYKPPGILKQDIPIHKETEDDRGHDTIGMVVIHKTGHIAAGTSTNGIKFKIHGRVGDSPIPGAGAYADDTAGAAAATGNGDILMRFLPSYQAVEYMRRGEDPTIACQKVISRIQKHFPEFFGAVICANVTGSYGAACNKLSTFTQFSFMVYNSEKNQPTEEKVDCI

Assays:
Experiment in all cases: log2 fold change, soluble protein after heating vs DMSO (PISA); higher = thermal stabilisation; K562 lysate, 10 uM; active = over 0.2 and 3.5 SD of the protein, either way, in both replicates (recomputed)
[1] = compound: CCCS(=O)(=O)Nc1ccc(F)c(C(=O)c2c[nH]c3ncc(-c4ccc(Cl)cc4)cc23)c1F [vemurafenib]
Procedure, shortened: (§1)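 Pellets of K562 cells were dounce-homogenised in PBS pH 7.4 with 1 mM MgCl2, and the crude extract was held at 1 mg/mL protein for a 30 min treatment with 10 μM compound. Aliquots were heated for 3 min over 48°C-58°C and pooled before NP-40 was added to 0.5% at 4°C. The supernatant from 21,000xg for 90 min was quantified by TMTpro 16plex LC-MS/MS with channel sums equalised. Values are reported from duplicates as log-two fold change in thermal stability relative to solvent controls.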

[2] = compound: CCCS(=O)(=O)Nc1ccc(F)c(C(=O)c2c[nH]c3ncc(Cl)cc23)c1F
Procedure, shortened: as §1

[3] = compound: CCN(CCCOc1ccc2c(Nc3cc(CC(=O)Nc4cccc(F)c4)[nH]n3)ncnc2c1)CCOP(=O)(O)O [barasertib]
Procedure, shortened: as §1

[4] = compound: CC[C@@H]1C(=O)N(C)c2cnc(Nc3ccc(C(=O)NC4CCN(C)CC4)cc3OC)nc2N1C1CCCC1
Procedure, shortened: as §1

[5] = compound: CC[C@@H]1C(=O)N(C)c2cnc(Nc3ccc(C(=O)N[C@H]4CC[C@H](N5CCN(CC6CC6)CC5)CC4)cc3OC)nc2N1C(C)C [volasertib]
Procedure, shortened: as §1

[6] = compound: CCn1c(C(=O)N(C2CC2)C2CC2)cc2c3c(ncn3C)c(Nc3cc(C)n(C)n3)nc21
Procedure, shortened: as §1

[7] = compound: CCn1cc(-c2ccnc3[nH]c(-c4cccc(CN(C)C)c4)cc23)c(-c2ccc(NC(=O)N(C)C)cc2)n1
Procedure, shortened: as §1

[8] = compound: CN1CCC(CNc2ccc3ncc(-c4cccc(OC(F)(F)F)c4)n3n2)CC1
Procedure, shortened: as §1

[9] = compound: CN1CCN(CCOc2cc(OC3CCOCC3)c3c(Nc4c(Cl)ccc5c4OCO5)ncnc3c2)CC1 [saracatinib]
Procedure, shortened: as §1

[10] = compound: CN1CCN(c2nc(C3=C(c4c[nH]c5ccccc45)C(=O)NC3=O)c3ccccc3n2)CC1 [sotrastaurin]
Procedure, shortened: as §1

[11] = compound: CN1CC[C@H](c2c(O)cc(O)c3c(=O)cc(-c4ccccc4Cl)oc23)[C@H](O)C1 [alvocidib]
Procedure, shortened: as §1

[12] = compound: CN1CCc2c(c3ccccc3n2Cc2ccc(C(=O)NO)cc2)C1 [Tubastatin A]
Procedure, shortened: as §1

[13] = compound: CNC(=O)C1=CC=CC=C1NC2=NC(=NC=C2Cl)NC3=C(C=C(C=C3)N4CCOCC4)OC
Procedure, shortened: as §1

[14] = compound: CNC(=O)c1ccc(Nc2ncc(C(F)(F)F)c(NCc3nccnc3N(C)S(C)(=O)=O)n2)cc1 [defactinib]
Procedure, shortened: as §1

[15] = compound: CNc1nc(-c2ccc3c(N)n[nH]c3c2)cc(N2C[C@@H](C(=O)NC3CCCCC3)CC[C@H]2C)n1
Procedure, shortened: as §1

[16] = compound: COC(=O)N[C@@H](C)CNc1nccc(-c2cn(C(C)C)nc2-c2cc(Cl)cc(NS(C)(=O)=O)c2F)n1 [encorafenib]
Procedure, shortened: as §1

[17] = compound: COC(=O)[C@H](CCSC)NC(=O)C1=C(C=C(C=C1)NC[C@H](CS)N)C2=CC=CC=C2
Procedure, shortened: as §1

[18] = compound: COc1cc(Nc2ncc3c(n2)-c2ccc(Cl)cc2C(c2c(F)cccc2OC)=NC3)ccc1C(=O)O [alisertib]
Procedure, shortened: as §1

[19] = compound: COc1cc2nc(-c3cc(F)ccc3O)nc(N[C@@H]3CNC[C@H]3C(C)(C)O)c2cc1OC
Procedure, shortened: as §1

[20] = compound: COc1cc2ncnc(Nc3ccc(F)c(Cl)c3)c2cc1OCCCN1CCOCC1 [gefitinib]
Procedure, shortened: as §1

Target | log2 fold change [1] | log2 fold change [2] | log2 fold change [3] | log2 fold change [4] | log2 fold change [5] | log2 fold change [6] | log2 fold change [7] | log2 fold change [8] | log2 fold change [9] | log2 fold change [10] | log2 fold change [11] | log2 fold change [12] | log2 fold change [13] | log2 fold change [14] | log2 fold change [15] | log2 fold change [16] | log2 fold change [17] | log2 fold change [18] | log2 fold change [19] | log2 fold change [20]
ACSL3 (UniProt O95573) | inactive: 0.005 | inactive: -0.004 | inactive: 0.051 | inactive: 0.072 | inactive: 0.003 | inactive: -0.042 | inactive: -0.055 | inactive: 0.048 | inactive: 0.038 | inactive: 0.036 | inactive: -0.01 | inactive: -0.013 | inactive: 0.001 | inactive: -0.001 | inactive: 0.021 | inactive: 0.023 | inactive: -0.054 | inactive: 0.022 | inactive: 0.038 | inactive: -0.014
AIFM1 (UniProt O95831) | inactive: 0.015 | inactive: -0.002 | inactive: -0.036 | inactive: -0.006 | inactive: -0.002 | inactive: -0.026 | inactive: 0.119 | inactive: -0.008 | inactive: -0.029 | inactive: -0.001 | inactive: 0.002 | inactive: 0.04 | inactive: 0.01 | inactive: -0.033 | inactive: 0.028 | inactive: -0.021 | inactive: -0.02 | inactive: -0.013 | inactive: -0.011 | inactive: 0.007
AHSA1 (UniProt O95433) | inactive: -0.005 | inactive: 0.008 | inactive: -0.028 | inactive: -0.009 | inactive: -0.005 | inactive: -0.021 | inactive: 0.005 | inactive: 0.035 | inactive: -0.009 | inactive: -0.001 | inactive: 0.004 | inactive: 0.036 | inactive: 0.005 | inactive: -0.026 | inactive: 0.009 | inactive: -0.021 | inactive: -0.008 | inactive: -0.003 | inactive: 0.038 | inactive: 0.004
ACTR2 (UniProt P61160) | inactive: -0.003 | inactive: -0.01 | inactive: -0.012 | inactive: 0.017 | inactive: 0.021 | inactive: -0.017 | inactive: -0.01 | inactive: 0.018 | inactive: -0.028 | inactive: 0.011 | inactive: 0.045 | inactive: 0.01 | inactive: -0.013 | inactive: -0.004 | inactive: 0.025 | inactive: -0.019 | inactive: -0.008 | inactive: 0.008 | inactive: -0.003 | inactive: 0.01
ACTN4 (UniProt O43707) | inactive: 0.006 | inactive: -0.011 | inactive: -0.037 | inactive: 0.04 | inactive: 0.017 | inactive: -0.032 | inactive: 0.003 | inactive: 0.022 | inactive: 0.001 | inactive: -0.015 | inactive: -0.008 | inactive: 0.047 | inactive: 0.008 | inactive: -0.013 | inactive: 0.038 | inactive: -0.005 | inactive: -0.035 | inactive: -0.014 | inactive: 0.01 | inactive: -0.006
ADGRE2 (UniProt Q9UHX3) | inactive: -0.036 | inactive: 0.09 | inactive: -0.09 | inactive: 0.049 | inactive: -0.005 | inactive: -0.03 | inactive: -0.074 | inactive: 0.005 | inactive: 0.057 | inactive: -0.012 | inactive: 0.025 | inactive: -0.011 | inactive: -0.011 | inactive: 0.001 | inactive: 0.019 | inactive: -0.006 | inactive: 0.148 | inactive: -0.042 | inactive: 0.071 | inactive: 0.084
AGAP1 (UniProt Q9UPQ3) | inactive: 0.264 | inactive: 0.027 | inactive: 0.055 | – | inactive: -0.029 | inactive: -0.054 | inactive: 0.052 | inactive: 0.001 | inactive: 0.056 | inactive: 0.008 | inactive: -0.009 | inactive: -0.086 | inactive: 0.045 | inactive: -0.038 | inactive: 0.083 | – | – | inactive: -0.025 | inactive: 0.002 | inactive: 0.063
ADK (UniProt P55263) | inactive: -0.052 | inactive: -0.036 | inactive: -0.054 | active: 0.458 | active: 0.437 | inactive: -0.027 | inactive: 0.044 | inactive: 0.155 | inactive: 0.043 | inactive: 0.343 | inactive: 0.246 | inactive: -0.025 | inactive: 0.178 | inactive: 0.026 | inactive: 0 | inactive: -0.048 | inactive: 0.068 | inactive: -0.063 | inactive: -0.015 | inactive: 0.158
AHI1 (UniProt Q8N157) | inactive: 0.083 | – | – | inactive: -0.034 | – | – | – | – | – | – | – | – | inactive: 0.198 | inactive: -0.067 | – | inactive: -0.049 | inactive: 0.053 | – | – | –
ADD2 isoform 9 (UniProt P35612) | inactive: 0.086 | inactive: -0.179 | – | inactive: 0.201 | inactive: 0.068 | inactive: 0.02 | inactive: 0.343 | inactive: -0.474 | inactive: -0.058 | – | inactive: -0.005 | inactive: 0.308 | inactive: 0.099 | inactive: 0.098 | inactive: 0.172 | inactive: 0.175 | inactive: 0.047 | inactive: -0.247 | inactive: -0.226 | inactive: -0.04
ADPRM (UniProt Q3LIE5) | inactive: 0.093 | – | inactive: 0.172 | inactive: 0.068 | – | inactive: -0.096 | inactive: -0.109 | inactive: 0.134 | – | inactive: -0.384 | inactive: -0.025 | inactive: 0.071 | – | inactive: 0.104 | – | inactive: 0.005 | inactive: 0.04 | – | – | –
ADIPOR2 (UniProt Q86V24) | inactive: -0.049 | inactive: 0.028 | inactive: 0.252 | inactive: 0.054 | inactive: 0.015 | inactive: -0.073 | – | – | inactive: 0.01 | inactive: 0.024 | – | inactive: -0.145 | inactive: 0.057 | inactive: 0.115 | inactive: 0.065 | inactive: 0.001 | inactive: -0.212 | inactive: -0.003 | inactive: -0.058 | inactive: -0.091
AIF1 (UniProt P55008) | inactive: -0.596 | inactive: -0.069 | – | – | inactive: 0.071 | inactive: 0.159 | inactive: 0.174 | inactive: -0.124 | inactive: 0.08 | inactive: 0.086 | inactive: 0.075 | inactive: 0.219 | inactive: -0.122 | inactive: -0.068 | inactive: -0.04 | – | – | inactive: 0.094 | inactive: -0.169 | inactive: 0.008
ACVR2B (UniProt Q13705) | inactive: 0.092 | – | – | – | – | – | – | – | – | – | – | – | inactive: 0.068 | inactive: -0.069 | – | – | – | – | – | –
ACTN2, A0A494C031 | inactive: 0.273 | inactive: 0.043 | inactive: -0.041 | inactive: 0.156 | inactive: 0.068 | inactive: -0.231 | inactive: -0.092 | inactive: 0.228 | – | inactive: 0.042 | inactive: -0.101 | inactive: 0.262 | inactive: 0.068 | inactive: -0.125 | – | inactive: -0.218 | inactive: 0.046 | inactive: -0.047 | inactive: 0.085 | inactive: 0.048
ADIPOR1 (UniProt Q96A54) | inactive: -0.003 | – | inactive: 0.133 | inactive: 0.002 | – | inactive: 0.019 | inactive: 0.075 | inactive: -0.023 | inactive: 0.147 | inactive: 0.021 | inactive: -0.057 | inactive: 0.023 | inactive: 0.047 | inactive: 0.074 | inactive: 0.133 | inactive: 0.051 | inactive: 0.037 | inactive: 0.071 | – | inactive: -0.175
AHSP (UniProt Q9NZD4) | inactive: 0.033 | inactive: -0.107 | inactive: 0.078 | inactive: 0.008 | inactive: 0.11 | – | inactive: 0.178 | inactive: -0.15 | – | – | inactive: 0.29 | – | – | inactive: 0.065 | – | inactive: -0.003 | inactive: -0.006 | inactive: 0.015 | inactive: -0.087 | inactive: -0.163
AFM (UniProt P43652) | inactive: 0.184 | – | – | inactive: -0.012 | – | – | inactive: 0.004 | inactive: -0.031 | – | – | inactive: -0.049 | – | – | inactive: 0 | – | inactive: 0.026 | inactive: -0.1 | – | – | –
ACTR5 (UniProt Q9H9F9) | inactive: 0.03 | – | inactive: 0.055 | inactive: 0.058 | – | inactive: 0.035 | inactive: -0.173 | inactive: -0.072 | inactive: 0.155 | inactive: 0.067 | inactive: -0.026 | inactive: 0.044 | inactive: 0.019 | inactive: 0.037 | inactive: 0.037 | inactive: 0.016 | inactive: 0.052 | inactive: -0.048 | – | inactive: 0.202
AGA (UniProt P20933) | inactive: 0.058 | inactive: -0.014 | – | inactive: 0.076 | inactive: 0.103 | inactive: -0.064 | – | – | – | inactive: 0.084 | – | inactive: -0.1 | inactive: -0.136 | inactive: -0.102 | – | inactive: 0.099 | inactive: -0.11 | – | inactive: 0.011 | –

Some entries already given with just log2 fold change [3] and log2 fold change [12].

| Target | log2 fold change [3] | log2 fold change [12] |
| --- | --- | --- |
| ACTN4 (UniProt O43707) | inactive: -0.037 | inactive: 0.047 |
| ADGRE2 (UniProt Q9UHX3) | inactive: -0.09 | inactive: -0.011 |
